# Laboratory results: the supplement of paper PMC6411743
# Sequences of proteins named here, by UniProt entry; tags and fusion partners are left off. A change or cut given only in a name is not applied to a line headed by its entry.
# UniProt Q9HCE0: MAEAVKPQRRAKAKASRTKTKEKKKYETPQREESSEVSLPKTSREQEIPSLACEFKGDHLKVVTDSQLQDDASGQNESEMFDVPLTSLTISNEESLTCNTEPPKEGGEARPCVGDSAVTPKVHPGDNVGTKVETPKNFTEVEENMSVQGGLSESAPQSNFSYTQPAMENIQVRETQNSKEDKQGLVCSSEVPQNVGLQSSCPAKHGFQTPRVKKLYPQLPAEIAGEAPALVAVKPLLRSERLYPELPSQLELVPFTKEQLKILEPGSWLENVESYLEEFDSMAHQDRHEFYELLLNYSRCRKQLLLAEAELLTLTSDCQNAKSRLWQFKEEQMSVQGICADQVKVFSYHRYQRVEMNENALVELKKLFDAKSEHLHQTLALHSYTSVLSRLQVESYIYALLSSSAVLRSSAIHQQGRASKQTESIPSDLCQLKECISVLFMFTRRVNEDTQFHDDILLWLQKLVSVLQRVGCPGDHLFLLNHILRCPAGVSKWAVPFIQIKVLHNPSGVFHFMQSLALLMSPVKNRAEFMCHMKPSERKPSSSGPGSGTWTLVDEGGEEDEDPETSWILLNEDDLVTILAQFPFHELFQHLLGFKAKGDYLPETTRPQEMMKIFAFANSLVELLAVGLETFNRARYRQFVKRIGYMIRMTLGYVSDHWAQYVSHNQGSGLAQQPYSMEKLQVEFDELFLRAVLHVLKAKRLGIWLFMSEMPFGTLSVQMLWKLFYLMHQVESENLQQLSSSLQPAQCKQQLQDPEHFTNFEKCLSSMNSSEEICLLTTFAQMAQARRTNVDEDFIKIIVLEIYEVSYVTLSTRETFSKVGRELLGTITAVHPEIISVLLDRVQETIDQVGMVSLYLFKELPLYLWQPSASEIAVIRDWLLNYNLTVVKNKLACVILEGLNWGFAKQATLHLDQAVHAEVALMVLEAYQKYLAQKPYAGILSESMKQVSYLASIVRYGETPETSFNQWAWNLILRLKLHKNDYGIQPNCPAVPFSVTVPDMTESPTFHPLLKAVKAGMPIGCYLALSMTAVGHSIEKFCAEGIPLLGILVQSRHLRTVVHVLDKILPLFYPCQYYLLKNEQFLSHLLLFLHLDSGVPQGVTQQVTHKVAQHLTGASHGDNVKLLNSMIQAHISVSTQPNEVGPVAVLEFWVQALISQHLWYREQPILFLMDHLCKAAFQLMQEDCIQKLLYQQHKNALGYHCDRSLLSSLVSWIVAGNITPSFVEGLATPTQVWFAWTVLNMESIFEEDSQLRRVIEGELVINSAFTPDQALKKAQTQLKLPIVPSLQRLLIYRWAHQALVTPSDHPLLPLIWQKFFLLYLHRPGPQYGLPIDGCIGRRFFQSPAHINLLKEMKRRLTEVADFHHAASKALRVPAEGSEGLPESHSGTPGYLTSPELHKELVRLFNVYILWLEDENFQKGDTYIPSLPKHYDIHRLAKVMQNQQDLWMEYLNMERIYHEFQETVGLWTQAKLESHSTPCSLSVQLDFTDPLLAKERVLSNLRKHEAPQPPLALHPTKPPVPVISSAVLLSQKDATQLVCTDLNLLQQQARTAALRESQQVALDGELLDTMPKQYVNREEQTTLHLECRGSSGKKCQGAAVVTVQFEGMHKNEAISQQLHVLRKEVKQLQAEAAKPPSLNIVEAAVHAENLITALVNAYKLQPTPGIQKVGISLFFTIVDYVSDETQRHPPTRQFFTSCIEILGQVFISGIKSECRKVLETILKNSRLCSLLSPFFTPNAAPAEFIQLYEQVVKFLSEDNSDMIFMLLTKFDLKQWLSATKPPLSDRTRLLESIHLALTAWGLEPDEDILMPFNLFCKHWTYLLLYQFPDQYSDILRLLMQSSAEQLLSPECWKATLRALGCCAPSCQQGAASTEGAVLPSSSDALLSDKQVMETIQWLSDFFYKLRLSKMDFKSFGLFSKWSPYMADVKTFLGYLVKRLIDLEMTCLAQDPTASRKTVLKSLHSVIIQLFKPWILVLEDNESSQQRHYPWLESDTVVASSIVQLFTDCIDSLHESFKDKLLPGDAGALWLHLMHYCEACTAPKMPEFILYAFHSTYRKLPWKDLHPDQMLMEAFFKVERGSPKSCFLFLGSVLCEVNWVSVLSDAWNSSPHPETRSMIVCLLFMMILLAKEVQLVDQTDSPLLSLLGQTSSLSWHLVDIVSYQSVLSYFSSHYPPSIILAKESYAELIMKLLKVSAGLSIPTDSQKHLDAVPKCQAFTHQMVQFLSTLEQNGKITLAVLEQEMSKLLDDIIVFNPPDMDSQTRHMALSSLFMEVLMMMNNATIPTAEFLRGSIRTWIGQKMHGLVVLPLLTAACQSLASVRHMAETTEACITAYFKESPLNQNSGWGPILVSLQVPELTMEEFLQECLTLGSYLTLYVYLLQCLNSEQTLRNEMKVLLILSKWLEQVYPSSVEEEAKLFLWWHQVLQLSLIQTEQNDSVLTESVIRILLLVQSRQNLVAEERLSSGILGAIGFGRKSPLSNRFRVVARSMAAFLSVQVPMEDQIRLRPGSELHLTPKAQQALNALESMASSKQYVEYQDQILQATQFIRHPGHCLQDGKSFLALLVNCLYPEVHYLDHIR
# UniProt Q9C0C2: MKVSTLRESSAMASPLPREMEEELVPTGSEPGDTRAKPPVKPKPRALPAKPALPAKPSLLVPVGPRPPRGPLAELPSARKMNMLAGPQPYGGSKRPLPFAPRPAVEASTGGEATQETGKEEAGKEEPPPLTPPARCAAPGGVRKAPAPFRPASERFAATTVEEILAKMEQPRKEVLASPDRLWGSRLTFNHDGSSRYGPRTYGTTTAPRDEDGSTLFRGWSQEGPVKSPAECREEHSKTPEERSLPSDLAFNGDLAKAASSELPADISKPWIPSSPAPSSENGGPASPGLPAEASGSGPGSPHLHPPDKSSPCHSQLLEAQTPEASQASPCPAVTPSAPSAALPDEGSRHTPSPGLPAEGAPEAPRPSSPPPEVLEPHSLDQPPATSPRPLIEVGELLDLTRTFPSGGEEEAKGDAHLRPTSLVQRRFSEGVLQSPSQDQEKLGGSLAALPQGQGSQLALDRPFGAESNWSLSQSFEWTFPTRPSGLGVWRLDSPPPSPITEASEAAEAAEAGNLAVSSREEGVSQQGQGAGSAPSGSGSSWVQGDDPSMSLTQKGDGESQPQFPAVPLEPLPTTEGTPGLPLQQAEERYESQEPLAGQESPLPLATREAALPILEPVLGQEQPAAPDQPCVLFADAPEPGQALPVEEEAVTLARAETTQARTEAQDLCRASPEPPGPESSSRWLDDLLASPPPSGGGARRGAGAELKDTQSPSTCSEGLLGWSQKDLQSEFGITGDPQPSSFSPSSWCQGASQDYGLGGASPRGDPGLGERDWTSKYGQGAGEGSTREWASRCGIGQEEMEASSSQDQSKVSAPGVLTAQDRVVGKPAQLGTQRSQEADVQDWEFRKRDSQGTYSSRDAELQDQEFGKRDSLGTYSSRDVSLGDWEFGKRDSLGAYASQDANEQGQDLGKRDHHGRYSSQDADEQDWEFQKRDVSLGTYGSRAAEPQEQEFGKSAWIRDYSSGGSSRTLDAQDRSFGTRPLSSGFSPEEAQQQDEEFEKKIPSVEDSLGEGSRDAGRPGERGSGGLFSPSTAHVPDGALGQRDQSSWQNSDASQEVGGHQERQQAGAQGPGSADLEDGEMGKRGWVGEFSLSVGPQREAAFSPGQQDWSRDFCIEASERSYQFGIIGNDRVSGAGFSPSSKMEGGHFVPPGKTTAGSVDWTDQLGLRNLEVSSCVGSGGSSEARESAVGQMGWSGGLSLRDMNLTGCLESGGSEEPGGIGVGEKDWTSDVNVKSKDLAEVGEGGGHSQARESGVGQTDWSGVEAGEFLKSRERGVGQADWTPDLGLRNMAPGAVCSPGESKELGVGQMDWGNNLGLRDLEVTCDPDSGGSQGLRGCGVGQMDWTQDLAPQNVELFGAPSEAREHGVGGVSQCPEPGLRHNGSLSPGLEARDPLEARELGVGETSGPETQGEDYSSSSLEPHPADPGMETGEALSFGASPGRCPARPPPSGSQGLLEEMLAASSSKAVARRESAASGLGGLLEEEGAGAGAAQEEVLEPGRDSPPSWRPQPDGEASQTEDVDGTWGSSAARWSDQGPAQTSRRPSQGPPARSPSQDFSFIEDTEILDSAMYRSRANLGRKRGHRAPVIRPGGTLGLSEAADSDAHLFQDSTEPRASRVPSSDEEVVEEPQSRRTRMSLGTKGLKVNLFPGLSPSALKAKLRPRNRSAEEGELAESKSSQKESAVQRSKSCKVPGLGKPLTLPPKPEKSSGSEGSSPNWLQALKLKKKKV
# UniProt Q9H867: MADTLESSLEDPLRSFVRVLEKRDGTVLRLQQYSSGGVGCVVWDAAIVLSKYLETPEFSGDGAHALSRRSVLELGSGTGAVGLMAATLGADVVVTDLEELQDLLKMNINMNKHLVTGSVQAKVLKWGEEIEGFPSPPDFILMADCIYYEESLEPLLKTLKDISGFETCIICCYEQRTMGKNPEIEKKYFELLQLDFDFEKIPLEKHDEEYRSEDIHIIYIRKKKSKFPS
# UniProt Q9GZU8: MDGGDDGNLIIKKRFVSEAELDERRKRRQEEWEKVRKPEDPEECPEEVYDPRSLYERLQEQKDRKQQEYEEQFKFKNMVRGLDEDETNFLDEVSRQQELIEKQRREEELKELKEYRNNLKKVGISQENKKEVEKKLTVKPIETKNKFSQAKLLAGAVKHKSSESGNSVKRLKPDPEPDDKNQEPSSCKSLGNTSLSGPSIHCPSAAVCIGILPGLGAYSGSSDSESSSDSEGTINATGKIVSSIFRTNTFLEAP
# UniProt Q9H300: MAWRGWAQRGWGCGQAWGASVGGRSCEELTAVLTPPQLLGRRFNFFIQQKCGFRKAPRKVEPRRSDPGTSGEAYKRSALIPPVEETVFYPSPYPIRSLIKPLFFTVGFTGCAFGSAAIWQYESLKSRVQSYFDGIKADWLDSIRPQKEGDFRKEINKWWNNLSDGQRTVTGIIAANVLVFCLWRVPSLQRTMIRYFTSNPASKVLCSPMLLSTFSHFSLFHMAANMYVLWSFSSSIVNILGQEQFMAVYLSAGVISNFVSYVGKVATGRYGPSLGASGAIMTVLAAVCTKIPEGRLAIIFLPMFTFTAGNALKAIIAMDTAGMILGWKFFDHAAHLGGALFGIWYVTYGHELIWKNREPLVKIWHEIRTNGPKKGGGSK
# UniProt Q9HAB8: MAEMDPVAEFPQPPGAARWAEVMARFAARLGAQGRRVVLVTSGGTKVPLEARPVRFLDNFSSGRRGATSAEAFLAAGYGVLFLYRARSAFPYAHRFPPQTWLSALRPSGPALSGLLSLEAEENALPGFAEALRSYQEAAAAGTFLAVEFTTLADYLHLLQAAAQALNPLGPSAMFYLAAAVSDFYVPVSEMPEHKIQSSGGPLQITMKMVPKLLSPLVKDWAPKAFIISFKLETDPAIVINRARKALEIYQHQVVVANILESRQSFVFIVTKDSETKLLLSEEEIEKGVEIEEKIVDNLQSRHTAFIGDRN
# UniProt Q9H1E3: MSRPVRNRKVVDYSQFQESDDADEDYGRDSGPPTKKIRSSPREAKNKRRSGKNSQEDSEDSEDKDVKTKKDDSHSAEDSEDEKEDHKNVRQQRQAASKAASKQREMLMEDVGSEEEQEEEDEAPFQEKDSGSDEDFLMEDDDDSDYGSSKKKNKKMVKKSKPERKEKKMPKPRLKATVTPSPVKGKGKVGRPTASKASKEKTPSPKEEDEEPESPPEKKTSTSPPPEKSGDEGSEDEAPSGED
# UniProt Q9H477: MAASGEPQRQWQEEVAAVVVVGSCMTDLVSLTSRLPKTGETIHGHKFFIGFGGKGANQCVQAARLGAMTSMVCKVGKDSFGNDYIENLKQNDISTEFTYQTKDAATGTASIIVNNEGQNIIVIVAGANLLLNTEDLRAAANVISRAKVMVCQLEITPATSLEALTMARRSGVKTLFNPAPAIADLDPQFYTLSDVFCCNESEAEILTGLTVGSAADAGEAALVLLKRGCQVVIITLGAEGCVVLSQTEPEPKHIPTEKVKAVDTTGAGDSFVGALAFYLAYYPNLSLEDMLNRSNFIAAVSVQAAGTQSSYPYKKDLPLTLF
# UniProt Q9H246: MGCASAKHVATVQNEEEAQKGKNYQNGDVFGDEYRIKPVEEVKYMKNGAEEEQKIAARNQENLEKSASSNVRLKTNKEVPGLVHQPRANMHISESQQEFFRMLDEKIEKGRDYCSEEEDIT
# UniProt Q9GZS1, whole entry: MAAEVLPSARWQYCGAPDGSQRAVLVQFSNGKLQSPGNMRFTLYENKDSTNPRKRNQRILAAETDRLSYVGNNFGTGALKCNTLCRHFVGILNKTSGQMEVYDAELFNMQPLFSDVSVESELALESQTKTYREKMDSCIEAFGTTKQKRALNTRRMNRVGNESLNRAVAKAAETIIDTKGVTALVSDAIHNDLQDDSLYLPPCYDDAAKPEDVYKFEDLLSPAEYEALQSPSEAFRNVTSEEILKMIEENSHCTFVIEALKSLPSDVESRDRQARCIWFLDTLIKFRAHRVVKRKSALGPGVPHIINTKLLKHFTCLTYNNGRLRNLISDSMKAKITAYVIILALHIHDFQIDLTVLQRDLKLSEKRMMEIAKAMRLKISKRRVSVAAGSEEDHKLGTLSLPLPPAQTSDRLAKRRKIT
# ± gives the standard deviation of the averaged measurements. Only a part is listed here, and it is no random draw.
# Compound: Nc1ncnc2c1ncn2[C@@H]1O[C@H](COP(=O)(O)OP(=O)(O)OP(=O)(O)O)[C@@H](O)[C@H]1O [adenosine triphosphate]
# Assay: NP40-soluble protein abundance relative to vehicle (solubility fold change) (ratio); higher = more soluble protein in presence of ATP
# Summary of the method: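 Data come from three independent experiments in which Dounce-homogenised Jurkat crude lysate was treated at eight concentrations from 0.1 to 10 mM. Treatment ran 10 min at room temperature and then 3 min at 37 °C, after which 0.8% NP40 and benzonase were added for 60 min at 4 °C before ultracentrifugation. The supernatant underwent TMT labelling and LC-MS/MS, and vsn-normalised intensities were expressed as fold change against the detergent-processed vehicle in each replicate.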
Target,NP40-soluble protein abundance (concentration: 1mM),NP40-soluble protein abundance (concentration: 2mM),NP40-soluble protein abundance (concentration: 4mM),NP40-soluble protein abundance (concentration: 6mM),NP40-soluble protein abundance (concentration: 8mM),NP40-soluble protein abundance (concentration: 10mM)
SEPSECS (UniProt Q9HD40),0.953 ± 0.03,0.968 ± 0.045,1.03 ± 0.1,1 ± 0.052,0.988 ± 0.073,1 ± 0.099
TMEM165 (UniProt Q9HC07),0.961 ± 0.05,0.973 ± 0.02,0.96 ± 0.031,1 ± 0.053,0.993 ± 0.038,0.94 ± 0.023
SDF2L1 (UniProt Q9HCN8),0.937 ± 0.021,0.947 ± 0.034,0.942 ± 0.015,0.929 ± 0.022,0.948 ± 0.035,0.968 ± 0.027
UniProt Q9HD33 and related entries,1 ± 0.12,0.888 ± 0.17,0.887 ± 0.1,0.973 ± 0.33,0.851 ± 0.19,0.89 ± 0.14
UniProt Q9H3R0 and related entries,1.05 ± 0.022,1.03 ± 0.051,1.03 ± 0.069,1.17 ± 0.12,1.05 ± 0.043,1.03 ± 0.054
ILKAP (UniProt Q9H0C8),0.98 ± 0.056,0.969 ± 0.025,0.956 ± 0.026,0.956 ± 0.037,0.966 ± 0.058,0.966 ± 0.041
PNN (UniProt Q9H307),1.1 ± 0.15,1.03 ± 0.23,0.951 ± 0.19,0.928 ± 0.25,0.753 ± 0.15,0.819 ± 0.15
GRPEL1 (UniProt Q9HAV7),0.935 ± 0.086,0.896 ± 0.047,0.928 ± 0.039,0.93 ± 0.045,0.896 ± 0.035,0.821 ± 0.067
UniProt Q9HD26 and related entries,1.01 ± 0.044,0.98 ± 0.028,0.984 ± 0.045,0.965 ± 0.05,0.978 ± 0.038,0.952 ± 0.031
MYH16 (UniProt Q9H6N6),0.947 ± 0.079,0.927 ± 0.071,0.889 ± 0.07,0.995 ± 0.061,0.879 ± 0.023,0.939 ± 0.066
ADNP (UniProt Q9H2P0),1.05 ± 0.036,1.06 ± 0.048,1.07 ± 0.046,1.1 ± 0.082,1.09 ± 0.044,1.1 ± 0.042
UniProt Q9HCE0 and related entries,1.04 ± 0.09,0.953 ± 0.074,1.06 ± 0.019,0.984 ± 0.05,1.02 ± 0.064,0.986 ± 0.12
OSBPL3 (UniProt Q9H4L5),1.08 ± 0.025,1.08 ± 0.01,1.07 ± 0.025,1.08 ± 0.038,1.03 ± 0.029,1.07 ± 0.04
UniProt Q9H9Y6 and related entries,1.16 ± 0.12,1.18 ± 0.11,1.28 ± 0.07,1.22 ± 0.095,1.34 ± 0.077,1.34 ± 0.081
GAN (UniProt Q9H2C0),1.07 ± 0.12,1.04 ± 0.032,1.02 ± 0.052,0.928 ± 0.085,1.03 ± 0.053,1.03 ± 0.025
TNKS1BP1 (UniProt Q9C0C2),1.08 ± 0.091,1.08 ± 0.071,1.09 ± 0.063,1.15 ± 0.14,1.08 ± 0.082,1.12 ± 0.089
VPS33B (UniProt Q9H267),1.01 ± 0.085,1.01 ± 0.073,1.01 ± 0.06,0.967 ± 0.094,1.02 ± 0.025,0.989 ± 0.048
UniProt Q9H446 and related entries,0.973 ± 0.052,1.01 ± 0.062,0.946 ± 0.061,1.05 ± 0.08,0.973 ± 0.068,0.956 ± 0.052
LRRC40 (UniProt Q9H9A6),0.993 ± 0.033,0.974 ± 0.038,0.978 ± 0.027,0.935 ± 0.029,0.968 ± 0.01,0.999 ± 0.04
UniProt Q9GZY8-2|Q9GZY8-5,0.952 ± 0.13,0.922 ± 0.11,0.98 ± 0.16,0.919 ± 0.17,0.968 ± 0.24,0.992 ± 0.23

Target,NP40-soluble protein abundance (concentration: 1mM),NP40-soluble protein abundance (concentration: 2mM),NP40-soluble protein abundance (concentration: 4mM),NP40-soluble protein abundance (concentration: 6mM),NP40-soluble protein abundance (concentration: 8mM),NP40-soluble protein abundance (concentration: 10mM)
UniProt Q9GZR5,0.959 ± 0.064,0.93 ± 0.026,0.91 ± 0.022,0.976 ± 0.079,0.911 ± 0.03,0.942 ± 0.014
UniProt Q9H1E5,0.8322 ± 0.0022,0.943 ± 0.028,0.886 ± 0.038,0.802 ± 0.1,0.8674 ± 0.0085,0.913 ± 0.016
CCDC134 (UniProt Q9H6E4),0.996 ± 0.059,1.01 ± 0.041,0.995 ± 0.049,0.966 ± 0.052,0.97 ± 0.049,0.929 ± 0.11
UniProt Q9GZR1 and related entries,0.916 ± 0.053,0.917 ± 0.12,0.908 ± 0.089,0.957 ± 0.14,0.911 ± 0.1,0.997 ± 0.059
TAOK3 (UniProt Q9H2K8),1.01 ± 0.056,0.981 ± 0.036,0.984 ± 0.028,0.985 ± 0.05,0.992 ± 0.024,0.996 ± 0.02
OSGEPL1 (UniProt Q9H4B0),1.03 ± 0.014,1.06 ± 0.039,1.08 ± 0.028,1 ± 0.067,1.08 ± 0.011,1.07 ± 0.067
SSU72 (UniProt Q9NP77),1.04 ± 0.11,1.05 ± 0.018,1.02 ± 0.048,1.05 ± 0.025,1.01 ± 0.05,0.949 ± 0.028
C12orf10 (UniProt Q9HB07),0.9606 ± 0.0039,0.968 ± 0.023,0.941 ± 0.021,0.948 ± 0.052,0.948 ± 0.028,0.94 ± 0.041
XRN2 (UniProt Q9H0D6),0.984 ± 0.02,0.983 ± 0.012,0.9861 ± 0.0086,0.999 ± 0.019,1.016 ± 0.0053,1.01 ± 0.016
UniProt Q9H8W3,1.27 ± 0.075,1.3 ± 0.17,1.33 ± 0.093,1.39 ± 0.17,1.38 ± 0.15,1.32 ± 0.073
UniProt Q9H867 and related entries,0.943 ± 0.044,0.97 ± 0.22,1.154 ± 0.0016,0.997 ± 0.042,0.966 ± 0.074,1.04 ± 0.041
UniProt Q9H2V7 and related entries,1.07 ± 0.1,1.08 ± 0.057,1.08 ± 0.094,0.993 ± 0.13,0.992 ± 0.014,1.15 ± 0.043
WDR33 (UniProt Q9C0J8),1.23 ± 0.046,1.32 ± 0.037,1.4 ± 0.059,1.52 ± 0.1,1.54 ± 0.091,1.56 ± 0.074
UniProt Q9H6U6 and related entries,0.975 ± 0.025,0.995 ± 0.065,1 ± 0.066,0.983 ± 0.063,0.973 ± 0.089,0.994 ± 0.061
RPAP3 (UniProt Q9H6T3),0.998 ± 0.032,1 ± 0.017,0.974 ± 0.027,1.06 ± 0.049,0.994 ± 0.025,1.002 ± 0.0046
LYRM4 (UniProt Q9HD34),0.959 ± 0.071,0.948 ± 0.079,0.929 ± 0.053,0.98 ± 0.09,0.933 ± 0.041,0.885 ± 0.088
UniProt Q9GZU8,0.91 ± 0.038,0.893 ± 0.023,0.869 ± 0.037,0.919 ± 0.055,0.859 ± 0.036,0.844 ± 0.023
UniProt Q9C0B7,1.11 ± 0.13,1.01 ± 0.11,1.1 ± 0.063,0.979 ± 0.15,0.952 ± 0.25,1.03 ± 0.058
PARL (UniProt Q9H300),0.822 ± 0.12,0.924 ± 0.13,0.885 ± 0.061,0.724 ± 0.035,0.926 ± 0.09,1.01 ± 0.16
VPS16 (UniProt Q9H269),1.04 ± 0.12,0.966 ± 0.052,1.01 ± 0.076,0.952 ± 0.094,0.999 ± 0.028,1.01 ± 0.061

Target,NP40-soluble protein abundance (concentration: 1mM),NP40-soluble protein abundance (concentration: 2mM),NP40-soluble protein abundance (concentration: 4mM),NP40-soluble protein abundance (concentration: 6mM),NP40-soluble protein abundance (concentration: 8mM),NP40-soluble protein abundance (concentration: 10mM)
PPCS (UniProt Q9HAB8),0.956 ± 0.057,0.974 ± 0.022,0.941 ± 0.026,0.919 ± 0.097,0.933 ± 0.012,0.944 ± 0.019
PTPN23 (UniProt Q9H3S7),1.03 ± 0.045,1.03 ± 0.012,1.03 ± 0.014,0.981 ± 0.051,1 ± 0.026,1.01 ± 0.024
NUCKS1 (UniProt Q9H1E3),0.815 ± 0.14,0.746 ± 0.058,0.607 ± 0.053,0.582 ± 0.057,0.504 ± 0.037,0.479 ± 0.074
UniProt Q9H8G2,1.08 ± 0.076,1.13 ± 0.052,1.24 ± 0.067,1.32 ± 0.019,1.33 ± 0.047,1.37 ± 0.017
UniProt Q9H0V9 and related entries,1.02 ± 0.16,1 ± 0.11,0.992 ± 0.11,0.92 ± 0.17,1.01 ± 0.13,0.977 ± 0.076
POFUT1 (UniProt Q9H488),1 ± 0.032,0.983 ± 0.029,0.983 ± 0.021,0.949 ± 0.045,0.915 ± 0.016,0.956 ± 0.014
UniProt Q9H6Z4 and related entries,0.934 ± 0.04,0.962 ± 0.032,0.921 ± 0.011,0.962 ± 0.042,0.9052 ± 0.0085,0.911 ± 0.011
TFB2M (UniProt Q9H5Q4),1.049 ± 0.0065,0.973 ± 0.023,0.975 ± 0.032,0.965 ± 0.037,1.02 ± 0.053,1.05 ± 0.073
BOLA2 (UniProt Q9H3K6),0.878 ± 0.1,0.91 ± 0.024,0.868 ± 0.062,0.925 ± 0.042,0.872 ± 0.011,0.866 ± 0.048
CPVL (UniProt Q9H3G5),0.957 ± 0.065,0.967 ± 0.046,0.955 ± 0.06,0.94 ± 0.069,0.97 ± 0.026,0.946 ± 0.03
UniProt Q9H477 and related entries,1.04 ± 0.076,1 ± 0.078,1.02 ± 0.088,0.984 ± 0.13,1.04 ± 0.047,1.02 ± 0.065
UniProt Q9C0D5 and related entries,0.947 ± 0.1,1.01 ± 0.049,0.987 ± 0.021,1.02 ± 0.09,0.958 ± 0.046,1 ± 0.034
TMEM168 (UniProt Q9H0V1),1.191 ± 0.0025,1.101 ± 0.0017,1.14 ± 0.11,1.09 ± 0.053,1.196 ± 0.0024,0.965 ± 0.14
GOLPH3L (UniProt Q9H4A5),0.966 ± 0.033,0.965 ± 0.037,0.9576 ± 0.0063,0.949 ± 0.022,0.945 ± 0.012,0.926 ± 0.049
UniProt Q9H246,1.11 ± 0.17,1.22 ± 0.089,1.11 ± 0.059,1.17 ± 0.15,1.07 ± 0.21,1.13 ± 0.093
YTHDC2 (UniProt Q9H6S0),1.33 ± 0.078,1.32 ± 0.039,1.37 ± 0.064,1.35 ± 0.096,1.47 ± 0.1,1.52 ± 0.056
CDT1 (UniProt Q9H211),1 ± 0.075,1.03 ± 0.037,1.04 ± 0.076,1.06 ± 0.061,1.02 ± 0.055,1.01 ± 0.053
UniProt Q9HCE9 and related entries,0.956 ± 0.099,1.01 ± 0.11,1.04 ± 0.016,0.959 ± 0.21,0.907 ± 0.16,1.02 ± 0.13
UniProt Q9GZT3,0.955 ± 0.073,0.934 ± 0.038,0.915 ± 0.031,0.927 ± 0.05,0.9211 ± 0.0055,0.872 ± 0.088
UniProt Q9GZS1-2,1.04 ± 0.085,1.06 ± 0.03,1.13 ± 0.091,1.14 ± 0.037,1.18 ± 0.089,1.19 ± 0.059

# Random excerpt: 5 records from the list, in no set order.
Target,NP40-soluble protein abundance (concentration: 1mM),NP40-soluble protein abundance (concentration: 2mM),NP40-soluble protein abundance (concentration: 4mM),NP40-soluble protein abundance (concentration: 6mM),NP40-soluble protein abundance (concentration: 8mM),NP40-soluble protein abundance (concentration: 10mM)
PPCS (UniProt Q9HAB8),0.956 ± 0.057,0.974 ± 0.022,0.941 ± 0.026,0.919 ± 0.097,0.933 ± 0.012,0.944 ± 0.019
UniProt Q9HCE9 and related entries,0.956 ± 0.099,1.01 ± 0.11,1.04 ± 0.016,0.959 ± 0.21,0.907 ± 0.16,1.02 ± 0.13
UniProt Q9GZT3,0.955 ± 0.073,0.934 ± 0.038,0.915 ± 0.031,0.927 ± 0.05,0.9211 ± 0.0055,0.872 ± 0.088
PTPN23 (UniProt Q9H3S7),1.03 ± 0.045,1.03 ± 0.012,1.03 ± 0.014,0.981 ± 0.051,1 ± 0.026,1.01 ± 0.024
UniProt Q9H0V9 and related entries,1.02 ± 0.16,1 ± 0.11,0.992 ± 0.11,0.92 ± 0.17,1.01 ± 0.13,0.977 ± 0.076
